# Source: article doi:10.1101/810192
# No constants are given. Whether binding was seen depends on the method and setting. Binding seen in cells or lysates may run through a third protein. Some entries that bind do so weakly or less than the wild type.
# Target: T1, Stimulator of interferon genes (STING) (mouse (endogenous in BMDC)) (UniProt Q3TBT3)
# T1 sequence: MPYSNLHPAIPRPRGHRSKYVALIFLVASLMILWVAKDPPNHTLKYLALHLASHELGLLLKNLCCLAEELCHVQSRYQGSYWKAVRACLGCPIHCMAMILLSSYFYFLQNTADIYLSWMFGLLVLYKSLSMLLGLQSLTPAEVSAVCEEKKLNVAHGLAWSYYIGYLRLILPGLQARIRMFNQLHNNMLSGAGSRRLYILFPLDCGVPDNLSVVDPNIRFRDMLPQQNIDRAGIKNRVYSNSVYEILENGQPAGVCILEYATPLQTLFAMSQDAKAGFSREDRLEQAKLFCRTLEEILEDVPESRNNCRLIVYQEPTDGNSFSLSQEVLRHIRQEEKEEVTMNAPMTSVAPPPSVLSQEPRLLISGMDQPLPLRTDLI
# Test: co-IP
substance,measurement,value
"LYN, a member of Src family kinases (from UniProt P25911-1 1-512)",binding,binds
